Results are given in words; binding and its absence hold for the method and conditions named. Binding seen in cells or lysates may run through a third protein. Some entries that bind do so weakly or less than the wild type. Where a sequence is shown, tags or fusion partners need not be part of it.
Biological target: FLAG-tagged SMCHD1 wild type, expressed in 293T cells (human) (UniProt A6NHR9)
Experiment: co-IP

Protein sequences, listed by entry. Tags and fused reporters are not part of them.
UniProt A6NHR9: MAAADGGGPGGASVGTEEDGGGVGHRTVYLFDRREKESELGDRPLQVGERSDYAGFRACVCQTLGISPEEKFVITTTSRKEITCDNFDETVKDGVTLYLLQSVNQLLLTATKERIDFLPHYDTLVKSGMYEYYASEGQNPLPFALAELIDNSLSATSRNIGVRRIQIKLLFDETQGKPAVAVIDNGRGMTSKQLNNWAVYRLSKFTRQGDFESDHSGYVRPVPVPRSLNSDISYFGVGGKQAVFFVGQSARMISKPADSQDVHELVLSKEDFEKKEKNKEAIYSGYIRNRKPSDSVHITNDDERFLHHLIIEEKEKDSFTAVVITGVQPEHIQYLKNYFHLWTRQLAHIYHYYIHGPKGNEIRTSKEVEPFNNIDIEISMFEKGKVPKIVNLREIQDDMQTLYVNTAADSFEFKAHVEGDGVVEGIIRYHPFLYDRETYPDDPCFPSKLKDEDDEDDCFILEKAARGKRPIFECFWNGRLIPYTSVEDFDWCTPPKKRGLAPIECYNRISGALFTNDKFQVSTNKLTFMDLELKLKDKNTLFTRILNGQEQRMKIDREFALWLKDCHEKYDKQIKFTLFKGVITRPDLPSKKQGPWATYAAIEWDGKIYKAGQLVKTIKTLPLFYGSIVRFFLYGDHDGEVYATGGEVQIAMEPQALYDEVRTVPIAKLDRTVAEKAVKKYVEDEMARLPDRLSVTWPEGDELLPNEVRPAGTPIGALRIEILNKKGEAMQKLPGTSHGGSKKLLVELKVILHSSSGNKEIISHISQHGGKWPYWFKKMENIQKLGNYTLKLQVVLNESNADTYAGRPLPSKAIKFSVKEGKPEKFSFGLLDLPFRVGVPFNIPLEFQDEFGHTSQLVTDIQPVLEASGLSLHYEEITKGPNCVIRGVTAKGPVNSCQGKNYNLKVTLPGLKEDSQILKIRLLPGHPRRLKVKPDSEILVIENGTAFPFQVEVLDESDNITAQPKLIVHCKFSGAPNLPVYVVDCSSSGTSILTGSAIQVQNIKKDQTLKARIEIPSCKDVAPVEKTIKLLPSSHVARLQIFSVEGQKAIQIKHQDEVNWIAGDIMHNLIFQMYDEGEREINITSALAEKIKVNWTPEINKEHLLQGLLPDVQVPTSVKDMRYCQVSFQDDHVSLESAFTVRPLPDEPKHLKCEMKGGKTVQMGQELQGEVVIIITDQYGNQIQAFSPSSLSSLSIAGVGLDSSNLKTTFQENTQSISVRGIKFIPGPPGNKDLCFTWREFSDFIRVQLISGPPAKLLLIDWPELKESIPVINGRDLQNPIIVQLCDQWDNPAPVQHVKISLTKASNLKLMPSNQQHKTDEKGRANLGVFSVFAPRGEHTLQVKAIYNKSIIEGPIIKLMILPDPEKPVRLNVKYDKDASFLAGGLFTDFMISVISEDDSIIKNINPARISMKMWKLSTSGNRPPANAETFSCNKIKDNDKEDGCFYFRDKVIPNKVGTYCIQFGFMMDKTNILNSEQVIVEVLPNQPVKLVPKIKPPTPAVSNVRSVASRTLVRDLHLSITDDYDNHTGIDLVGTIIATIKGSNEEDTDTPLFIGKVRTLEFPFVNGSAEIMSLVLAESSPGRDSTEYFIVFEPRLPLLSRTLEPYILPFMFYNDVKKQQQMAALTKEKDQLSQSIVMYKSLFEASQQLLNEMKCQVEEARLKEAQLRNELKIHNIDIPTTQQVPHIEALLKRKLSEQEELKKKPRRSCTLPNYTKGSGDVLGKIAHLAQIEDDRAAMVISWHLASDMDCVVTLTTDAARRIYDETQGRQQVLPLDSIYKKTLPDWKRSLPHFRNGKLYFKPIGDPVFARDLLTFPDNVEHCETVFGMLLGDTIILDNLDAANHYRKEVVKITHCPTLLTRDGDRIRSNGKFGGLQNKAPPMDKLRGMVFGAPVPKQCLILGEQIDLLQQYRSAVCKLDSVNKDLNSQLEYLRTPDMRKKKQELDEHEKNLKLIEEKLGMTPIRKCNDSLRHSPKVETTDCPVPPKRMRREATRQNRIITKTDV

- binding: binds
B1: HA-tagged LRIF1, expressed in 293T cells (protein, UniProt Q5T3J3 1-769)
chain: MSNNLRRVFLKPAEENSGNASRCVSGCMYQVVQTIGSDGKNLLQLLPIPKSSGNLIPLVQSSVMSDALKGNTGKPVQVTFQTQISSSSTSASVQLPIFQPASSSNYFLTRTVDTSEKGRVTSVGTGNFSSSVSKVQSHGVKIDGLTMQTFAVPPSTQKDSSFIVVNTQSLPVTVKSPVLPSGHHLQIPAHAEVKSVPASSLPPSVQQKILATATTSTSGMVEASQMPTVIYVSPVNTVKNVVTKNFQNIYPKPVTEIAKPVILNTTQIPKNVATETQLKGGQHSQAAPVKWIFQDNLQPFTPSLVPVKSSNNVASKILKTFVDRKNLGDNTINMPPLSTIDPSGTRSKNMPIKDNALVMFNGKVYLLAKKGTDVLPSQIDQQNSVSPDTPVRKDTLQTVSSSPVTEISREVVNIVLAKSKSSQMETKSLSNTQLASMANLRAEKNKVEKPSPSTTNPHMNQSSNYLKQSKTLFTNPIFPVGFSTGHNAPRKVTAVIYARKGSVLQSIEKISSSVDATTVTSQQCVFRDQEPKIHNEMASTSDKGAQGRNDKKDSQGRSNKALHLKSDAEFKKIFGLTKDLRVCLTRIPDHLTSGEGFDSFSSLVKSGTYKETEFMVKEGERKQQNFDKKRKAKTNKKMDHIKKRKTENAYNAIINGEANVTGSQLLSSILPTSDVSQHNILTSHSKTRQEKRTEMEYYTHEKQEKGTLNSNAAYEQSHFFNKNYTEDIFPVTPPELEETIRDEKIRRLKQVLREKEAALEEMRKKMHQK

Reference: article doi:10.1101/2025.07.08.663435 (bioRxiv, 2025)
